# Library screen at single concentrations

Chains of the proteins cited; added tags and fusions are not shown. Residues count along the entry.
UniProt P9WNZ1, whole entry: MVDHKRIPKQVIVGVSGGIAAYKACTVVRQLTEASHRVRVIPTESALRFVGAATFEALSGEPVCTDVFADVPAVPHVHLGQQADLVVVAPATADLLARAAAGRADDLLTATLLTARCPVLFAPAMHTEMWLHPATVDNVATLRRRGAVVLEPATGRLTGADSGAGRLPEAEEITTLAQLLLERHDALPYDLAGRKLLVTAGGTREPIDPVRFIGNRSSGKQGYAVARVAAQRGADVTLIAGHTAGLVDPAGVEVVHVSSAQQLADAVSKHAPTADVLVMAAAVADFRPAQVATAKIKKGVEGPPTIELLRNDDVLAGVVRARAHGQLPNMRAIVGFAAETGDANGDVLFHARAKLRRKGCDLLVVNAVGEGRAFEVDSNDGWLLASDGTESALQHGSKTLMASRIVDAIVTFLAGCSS
UniProt I6X8D2, whole entry: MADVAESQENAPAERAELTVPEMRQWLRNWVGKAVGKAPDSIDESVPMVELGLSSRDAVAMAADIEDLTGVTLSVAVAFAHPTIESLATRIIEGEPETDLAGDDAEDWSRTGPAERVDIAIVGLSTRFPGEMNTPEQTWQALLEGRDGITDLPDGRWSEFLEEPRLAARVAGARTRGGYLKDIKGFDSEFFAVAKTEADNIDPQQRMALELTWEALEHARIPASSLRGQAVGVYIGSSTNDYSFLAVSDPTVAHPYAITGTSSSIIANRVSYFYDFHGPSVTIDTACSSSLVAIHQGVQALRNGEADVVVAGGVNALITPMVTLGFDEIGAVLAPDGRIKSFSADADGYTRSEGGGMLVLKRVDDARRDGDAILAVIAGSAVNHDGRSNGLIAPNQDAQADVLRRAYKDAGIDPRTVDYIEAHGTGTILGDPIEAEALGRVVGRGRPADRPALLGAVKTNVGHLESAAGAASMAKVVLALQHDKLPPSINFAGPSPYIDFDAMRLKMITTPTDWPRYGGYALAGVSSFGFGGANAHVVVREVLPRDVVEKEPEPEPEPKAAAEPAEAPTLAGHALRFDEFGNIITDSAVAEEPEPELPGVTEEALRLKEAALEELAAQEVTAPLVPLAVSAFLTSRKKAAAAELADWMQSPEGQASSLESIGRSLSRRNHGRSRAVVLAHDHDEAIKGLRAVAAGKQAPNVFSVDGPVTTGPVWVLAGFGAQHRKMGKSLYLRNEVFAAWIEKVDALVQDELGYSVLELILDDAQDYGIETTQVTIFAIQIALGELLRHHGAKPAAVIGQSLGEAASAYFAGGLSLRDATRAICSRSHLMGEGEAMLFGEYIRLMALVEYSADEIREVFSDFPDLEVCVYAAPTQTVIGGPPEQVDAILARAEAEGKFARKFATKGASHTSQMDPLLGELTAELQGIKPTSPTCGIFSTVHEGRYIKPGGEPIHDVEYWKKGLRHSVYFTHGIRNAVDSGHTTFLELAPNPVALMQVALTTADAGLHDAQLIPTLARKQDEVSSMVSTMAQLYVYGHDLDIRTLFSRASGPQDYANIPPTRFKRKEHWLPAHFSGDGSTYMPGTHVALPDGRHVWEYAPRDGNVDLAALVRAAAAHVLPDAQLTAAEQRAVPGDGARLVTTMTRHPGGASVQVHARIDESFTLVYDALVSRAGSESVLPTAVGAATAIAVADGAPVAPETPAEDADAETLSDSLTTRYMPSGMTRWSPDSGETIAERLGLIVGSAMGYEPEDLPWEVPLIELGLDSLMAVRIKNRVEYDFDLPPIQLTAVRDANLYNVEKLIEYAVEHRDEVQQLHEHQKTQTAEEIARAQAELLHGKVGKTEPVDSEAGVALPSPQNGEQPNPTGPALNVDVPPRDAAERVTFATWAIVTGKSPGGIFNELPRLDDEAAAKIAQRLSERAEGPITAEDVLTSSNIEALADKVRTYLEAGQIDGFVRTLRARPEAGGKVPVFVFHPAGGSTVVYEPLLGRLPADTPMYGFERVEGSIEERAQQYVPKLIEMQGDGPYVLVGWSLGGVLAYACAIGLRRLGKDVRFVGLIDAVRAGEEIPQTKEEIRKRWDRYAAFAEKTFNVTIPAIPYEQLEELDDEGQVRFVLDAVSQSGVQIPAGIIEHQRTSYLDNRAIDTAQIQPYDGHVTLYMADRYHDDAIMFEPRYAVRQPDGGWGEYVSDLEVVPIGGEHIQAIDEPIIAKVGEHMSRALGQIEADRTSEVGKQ
UniProt P9WPC5, whole entry: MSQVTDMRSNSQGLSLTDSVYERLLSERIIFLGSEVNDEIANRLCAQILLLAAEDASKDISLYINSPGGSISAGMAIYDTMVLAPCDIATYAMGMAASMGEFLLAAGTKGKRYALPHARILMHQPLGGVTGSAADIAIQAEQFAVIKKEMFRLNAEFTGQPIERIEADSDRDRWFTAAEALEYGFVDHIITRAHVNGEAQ
UniProt P9WPC3, whole entry partner: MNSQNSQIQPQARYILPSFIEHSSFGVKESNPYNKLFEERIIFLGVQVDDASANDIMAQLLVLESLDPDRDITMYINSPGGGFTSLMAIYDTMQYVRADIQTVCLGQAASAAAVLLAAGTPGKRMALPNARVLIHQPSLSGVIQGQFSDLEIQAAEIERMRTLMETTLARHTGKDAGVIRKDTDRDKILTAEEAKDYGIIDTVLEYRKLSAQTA
UniProt A4I591, 1-473: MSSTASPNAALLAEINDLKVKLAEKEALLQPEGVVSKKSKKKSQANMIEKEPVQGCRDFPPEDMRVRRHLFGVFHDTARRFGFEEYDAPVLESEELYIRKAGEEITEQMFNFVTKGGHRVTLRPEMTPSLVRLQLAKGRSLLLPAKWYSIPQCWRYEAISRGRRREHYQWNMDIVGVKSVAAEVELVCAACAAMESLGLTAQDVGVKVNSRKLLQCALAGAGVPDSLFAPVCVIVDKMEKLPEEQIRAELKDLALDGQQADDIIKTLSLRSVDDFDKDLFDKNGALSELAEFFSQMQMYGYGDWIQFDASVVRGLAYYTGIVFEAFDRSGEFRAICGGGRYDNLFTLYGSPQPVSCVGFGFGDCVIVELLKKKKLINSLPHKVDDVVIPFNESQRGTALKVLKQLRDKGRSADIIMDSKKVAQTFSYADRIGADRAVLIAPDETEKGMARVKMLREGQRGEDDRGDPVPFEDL
UniProt P9WFT3, whole entry: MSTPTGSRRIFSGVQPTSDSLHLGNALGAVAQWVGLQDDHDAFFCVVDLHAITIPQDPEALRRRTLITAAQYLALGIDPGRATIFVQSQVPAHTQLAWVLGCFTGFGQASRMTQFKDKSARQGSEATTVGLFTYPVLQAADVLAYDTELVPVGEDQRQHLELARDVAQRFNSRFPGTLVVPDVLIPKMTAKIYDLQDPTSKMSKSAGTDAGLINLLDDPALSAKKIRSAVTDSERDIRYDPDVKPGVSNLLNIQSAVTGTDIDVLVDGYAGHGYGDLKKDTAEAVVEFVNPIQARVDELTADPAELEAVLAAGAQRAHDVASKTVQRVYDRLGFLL

The values are deposited in ChEMBL (CHEMBL3988442, “University of Dundee, Small-Polar-MMV Screening Library” (2021)).

A: 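Enzyme assay of CoaBC with a phosphate dye (Biomol Green) read at 650 nm. Target: Coenzyme A biosynthesis protein CoaBC, Mycobacterium tuberculosis (UniProt P9WNZ1). Tested at 30 µM. Direction is inferred from only a few compounds that gave an IC50; most scored high, so higher reads as stronger inhibition. Most strong results did not repeat in a second test. Of about 67,000 compounds tested this way, about 40 (0.06%) reached 50% or more in at least one test.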
B: 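Enzyme assay of the thioesterase domain of polyketide synthase 13; the read-out is not stated. Target: Polyketide synthase Pks13, Mycobacterium tuberculosis (UniProt I6X8D2). Tested at 30 µM. The record gives no direction; the compounds picked for IC50 retests had high values, so higher reads as stronger inhibition. About 67,000 compounds were tested under these conditions; 0.46% (about 300) showed 50% or more at least once.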
C: 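Protease assay of ClpP1P2, read by the AMC dye that it sets free. Target: ClpP1P2, Mycobacterium tuberculosis (UniProt P9WPC5 and UniProt P9WPC3). Compounds at 50 µM. Higher reads as stronger inhibition, judged from the few compounds that gave an IC50. Most other retested compounds had strongly negative values. About 69,000 compounds were tested under these conditions; 0.015% (about 10) showed 50% or more at least once.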
D: 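Enzyme assay of histidyl-tRNA synthetase; the read-out is not stated. Target: Histidine-tRNA ligase, Leishmania infantum (UniProt A4I591). Tested at 30 µM. Higher reads as stronger inhibition (inferred: compounds with an IC50 in retests scored well above the rest). The assay is labelled LdHisRS but filed under L. infantum. Of about 69,000 compounds tested this way, about 410 (0.6%) reached 50% or more in at least one test.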
E: 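Tryptophan-tRNA ligase, Mycobacterium tuberculosis (UniProt P9WFT3). Enzyme assay of tryptophanyl-tRNA synthetase; the read-out is not stated. Concentration: 10 µM. Higher most likely means stronger inhibition; the record gives no direction and few retests gave an IC50. Of about 65,000 compounds tested this way, about 64 (0.098%) reached 50% or more in at least one test.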

The filed quantity is “Percent Effect” (%).
How 0% and 100% were set is not recorded. Most values in the screen are low, and negative values occur.
The compounds are a random part of those screened.
A dash means the value is not listed here; it may have been measured.

Compound	A	B	C	D	E
O=C(c1sccc1-n1cnnn1)N1CCC2(CCCCC2)CC1	-1.786	5.947	-5.355	13.54	10.01
CS(=O)(=O)N1CC[C@H]2O[C@H](C(=O)NCc3cccnc3)CC[C@H]21	2.932	-6.743	13.32	11.43	0.4882
COc1ccc(CC(=O)N2CCCCC2Cn2cc(C)cn2)cc1F (centres unmarked)	2.872	-25.36	-27.26	0.885	-6.27
Cc1nnc(CN(C)C2CCN(CCc3ccccn3)CC2)o1	2.041	-5.002	-8.588	3.636	-11.63
N#CC1(C(=O)N2CCN(Cc3cscn3)CC2)CCCCC1	4.082	0.6084	-6.634	14.55	-4.545
O=C(Nc1cccnc1)c1nn(C2CCS(=O)(=O)C2)c2c1CCCC2 (centres unmarked)	2.152	-16.06	-12.54	17.5	1.898
N#Cc1cccc(CN2CC[C@@H]3[C@@H]2CC(=O)N3CCN2CCCC2)c1	6	-11	-6.884	18	1.876
Cc1noc(C)c1CNC[C@@]1(COc2cccnc2)C[C@@H](O)[C@@H](O)C1	2.87	-17	-2.243	14.86	-2.352
COCCN1CCC2(COCc3cnc(-c4ccccc4)nc32)C1 (centres unmarked)	-1.235	-4.014	-5.223	4.545	-
CN(C)CCn1c2c(ccc1=O)CC(NCc1cnn(C)c1)CC2 (centres unmarked)	4.827	-10.36	2.05	15.84	-
O=C(c1cccnc1)N1CCC[C@]2(C[C@H](Oc3ncccc3F)CO2)C1	-2.096	1.968	-16.69	14.52	-2.703
C[C@H]1CN(CC2CCOCC2)C[C@@]12CCN(Cc1cccnc1)C2=O	2.353	-20.1	8.625	26.61	-4.312
CCC(CC)c1cc(CNC(=O)N2CCC[C@@H]2CO)on1	11.59	-0.1835	-10.37	9.836	21.72
COC(=O)c1sccc1S(=O)(=O)NCCC(O)c1ccco1 (centres unmarked)	0.6342	-30.68	2.119	13.91	4.635
O=C(Cc1noc(C(=O)NCCO)n1)Nc1cccc(C(F)(F)F)c1	-2.604	10.61	-0.606	1.124	-3.317
CCN1C[C@H]2CCN(C(C)=O)CC[C@H]2S1(=O)=O	0.9421	-19.86	14.45	9.709	0.201
COCCN(C)C(C(=O)O)c1ccc(F)c(Cl)c1 (centres unmarked)	7.275	-14.05	-9.124	16.13	1.201
OCCOc1ccc(NCc2cc(F)cc3cccnc23)cn1	1.951	-29.52	-5.197	18.33	1.698
OCCOCc1nnn2c1CN(c1ncccn1)CCC2	-	12.19	-6.179	17.09	15.6
CC(=O)Nc1ccc(CN2C[C@H]3CC[C@@H]2CN(c2ncccn2)C3)cc1	-19.25	-37.49	-2.9	15	3.065
COc1ccc(CN2CCN(Cc3nccn3C)C(C)C2)cc1F (centres unmarked)	-2.97	-0.3278	-9.299	12	-2.974
COc1ncccc1CN1C[C@@H]2COC[C@]2(COCC(=O)N(C)C)C1	4.511	10.58	-9.506	5.128	-0.4149
CC(C)CN1C(=O)CO[C@@H]2CN(C(=O)C3CCOCC3)C[C@H]21	-20.3	-14.1	-5.317	-408.8	-5.35
CN(CCO)C[C@@H]1CN(C(=O)c2c(F)cccc2Cl)C[C@@H]1CO	0.9091	-14.6	-17.25	-6.604	-0.58
COCCCC1CCCCN1Cc1cnn(C)c1C1CC1 (centres unmarked)	-6.198	-29.27	12.36	14.67	-3.095
CC(C)(C)c1n[nH]cc1CNCC1CCN(CC(F)(F)F)C1 (centres unmarked)	-4.147	-24.45	3.237	13.33	1.262
Cc1ccc(CN2CC[C@H]3OCC[C@@]3(C(=O)N3CCCO3)C2)s1	-1.356	-17.68	-13.48	6.944	0.08865
O=C(NC1CC1)C1CCc2nnc(C3CC3)n21 (centres unmarked)	-0.7895	-6.215	-1.489	0	-4.927
Cn1ccc(C(=O)N2CCC3(CCN3c3ncccn3)C2)n1 (centres unmarked)	3.171	4.367	5.566	11.32	-
C[C@H]1C[C@@H]2CCN(C(=O)c3ccncc3)C[C@H]2O1	-1.253	4.702	4.988	17.95	3.734
CC(Cn1cccn1)NC(=O)NCc1ccc(S(C)(=O)=O)cc1 (centres unmarked)	3.655	-16.85	-17.52	4.425	15.05
CC(C)CC(CCO)CNC(=O)N1CC(C)(C)C1(C)C (centres unmarked)	7.455	-28.33	0.4962	6.349	-0.9372
CN1C(=O)CC[C@@H]2[C@H]1CCN2S(=O)(=O)c1cccs1	3.817	-20.03	-8.792	9.709	-5.255
CC(C)N1CCC(Cc2cncc(-c3cc(F)ccc3C(=O)O)n2)C1 (centres unmarked)	2.906	13.39	-2.6	12.37	-
CN(Cc1csc(-c2cccs2)n1)CC(O)CO (centres unmarked)	1.46	-5.589	-3.809	-8.889	2.106
Cc1ccc(C(=O)N(C)S(C)(=O)=O)cc1Cl	6.452	4.086	-8.721	0	-3.43
Cc1ccc(CC(=O)N2CCCC(c3ccn[nH]3)C2)cn1 (centres unmarked)	6.351	-30.15	-11.21	11.01	9.386

For reference, 3 entries once more:

Compound,A,B,C,D,E
CC(=O)Nc1ccc(CN2C[C@H]3CC[C@@H]2CN(c2ncccn2)C3)cc1,-19.25,-37.49,-2.9,15,3.065
OCCOc1ccc(NCc2cc(F)cc3cccnc23)cn1,1.951,-29.52,-5.197,18.33,1.698
C[C@H]1C[C@@H]2CCN(C(=O)c3ccncc3)C[C@H]2O1,-1.253,4.702,4.988,17.95,3.734